Assay [1] addresses TRIM47-myc-Flag (human) (UniProt Q96LD4). The assay can be described thus: co-IP; semi-endogenous Co-IP: HEK293 co-transfected with TRIM47-myc-Flag or empty vector and HA-Ubiquitin; endogenous KEAP1; cells treated with DMSO, 10 µM MG132 and/or 0.1 µM MLN4924 for 4 h before lysis; Protein A/G magnetic agarose beads, +4 °C.
Assay [2] shares this target. Kind of assay: co-IP; whole cell lysates of HEK293 co-transfected with TRIM47-myc-Flag and KEAP1-Flag; immunoprecipitated with myc antibody, Protein A/G magnetic agarose beads, +4 °C; blotted for myc (TRIM47) and KEAP1.

The chains behind the UniProt entries cited, without tags or fusion partners.
UniProt Q96LD4: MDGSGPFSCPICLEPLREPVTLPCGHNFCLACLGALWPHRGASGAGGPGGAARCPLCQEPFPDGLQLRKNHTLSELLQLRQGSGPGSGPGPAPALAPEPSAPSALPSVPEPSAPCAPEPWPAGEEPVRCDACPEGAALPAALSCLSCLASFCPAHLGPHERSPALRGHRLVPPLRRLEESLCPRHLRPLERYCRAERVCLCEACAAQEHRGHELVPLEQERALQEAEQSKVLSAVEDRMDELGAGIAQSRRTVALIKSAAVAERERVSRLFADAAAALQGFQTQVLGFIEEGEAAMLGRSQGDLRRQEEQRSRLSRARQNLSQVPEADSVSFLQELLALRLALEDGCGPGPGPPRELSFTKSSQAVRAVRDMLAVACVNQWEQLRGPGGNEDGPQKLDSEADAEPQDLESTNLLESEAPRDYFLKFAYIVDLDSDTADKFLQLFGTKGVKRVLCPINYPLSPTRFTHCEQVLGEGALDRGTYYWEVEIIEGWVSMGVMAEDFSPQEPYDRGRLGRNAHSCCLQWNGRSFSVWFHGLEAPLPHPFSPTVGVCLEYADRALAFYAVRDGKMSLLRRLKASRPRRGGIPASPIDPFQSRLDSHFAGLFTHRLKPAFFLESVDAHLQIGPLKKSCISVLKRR
UniProt Q14145: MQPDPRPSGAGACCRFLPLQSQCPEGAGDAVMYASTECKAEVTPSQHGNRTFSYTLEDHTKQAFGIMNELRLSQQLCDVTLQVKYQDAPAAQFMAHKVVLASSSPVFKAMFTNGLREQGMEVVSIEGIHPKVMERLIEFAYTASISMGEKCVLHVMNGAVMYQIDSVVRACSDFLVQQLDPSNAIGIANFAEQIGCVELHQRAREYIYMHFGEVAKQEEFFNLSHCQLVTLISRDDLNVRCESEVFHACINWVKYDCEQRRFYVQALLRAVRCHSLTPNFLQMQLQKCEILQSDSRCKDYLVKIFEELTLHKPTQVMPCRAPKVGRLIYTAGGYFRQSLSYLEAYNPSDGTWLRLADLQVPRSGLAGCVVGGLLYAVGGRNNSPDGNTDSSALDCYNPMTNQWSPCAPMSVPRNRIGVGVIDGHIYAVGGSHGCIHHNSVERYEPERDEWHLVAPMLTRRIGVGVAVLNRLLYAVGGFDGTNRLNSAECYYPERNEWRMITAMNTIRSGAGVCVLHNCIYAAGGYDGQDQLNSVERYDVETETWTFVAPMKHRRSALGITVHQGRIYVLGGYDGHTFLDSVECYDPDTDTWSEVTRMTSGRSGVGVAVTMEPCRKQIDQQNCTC

These are yes or no findings as the source states them, for the method shown. Binding seen in cells or lysates may run through a third protein. Some results given as binding are weak or reduced against the parent protein; the word gives no strength.

In the case of “KEAP1 (endogenous) (from UniProt Q14145 1-624)”, the binding result in assay [1] is recorded as “binds”. For the substance KEAP1-Flag (from UniProt Q14145 1-624), the binding entry in assay [2] is given as “binds”.
